In PubChem BioAssay AID2685 (National Center for Advancing Translational Sciences (NCATS), 2010):
The whole screen tested about 320,000 compounds, of which about 2,100 (0.66%) were called active. Inconclusive results, whose numbers are uncertain, are shown with a selection of clear calls. The call rests on the fitted dose curve; in most records, active means well fitted inhibition curve with a large enough effect in the signal ratio, with a control signal flat (not every such curve was filed as active); inconclusive means small, poorly fitted or top-dose-only effect, or effect the other way, or a change in a side signal; inactive means flat fitted curve, though single readings scatter; the % refers to the signal ratio. Potencies beside an inconclusive call are fits to weak or partial responses and may not hold up.

experiment: qHTS Assay for Lipid Storage Modulators in Drosophila S3 Cells; conditions: BODIPY lipid droplet fluorescence, 18-24 h, cells fed with added oleic acid; lipid storage change, negative = inhibition: at 46.1 µM (top of the series) unless noted
Outline: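 Drosophila S3 cells got compounds at several concentrations plus oleic acid (400 uM solution). Laser-scanning cytometry with 488 nm excitation read lipid droplets at 500-530 nm and cells at 575-640 nm. Percent activity was relative to 20 uM Triacsin C.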
On the % scale 0 is the no-effect control and ±100 the full control effect; potency means the concentration at half of the fitted maximal effect.

Lipid storage change, negative = inhibition, inactive:
O=C(NCCCN1CCCC1=O)c1cc(S(=O)(=O)N2CCOCC2)ccc1Cl, COc1ccc(CCNc2c(C=O)c(=O)[nH]c3ccccc23)cc1OC, COc1cccc(CNC(=O)COc2cccc3c2OC(C)(C)C3)c1, CCOC(=O)CCN

Lipid storage change, negative = inhibition, inconclusive:
O=[N+]([O-])CC(=Nc1ccc(F)cc1)N/N=C\c1oc(O)c2ccccc12 10.3%, O=C(NCc1ccccn1)c1ccc2c(c1)N(Cc1ccccc1)CCS2 -37.4%, COc1ccc(NC(=O)c2ccc(Cl)nc2)cc1S(=O)(=O)N1CCOCC1 10.3%, Cc1cc(C)n(CCNC(=O)C2CCC(=O)N(CCc3cccc(F)c3)C2)n1 (stereo not given) -15.9%, CN1CCN(C(=S)NC(=O)c2ccc(C(C)(C)C)cc2)CC1 -1.07%, O=C(COc1ccccc1Cl)Nc1cccc(S(=O)(=O)N2CCCC2)c1 -22%, O=C(c1cccc(NC2=NC3CS(=O)(=O)CC3S2)c1)N1CCN(c2ncccn2)CC1 (stereo not given) 18.9%, CC(=O)Nc1ccc(S(=O)(=O)Nc2nnc(C(C)C)s2)cc1 -13.5%, Cc1cc(N2CCN(c3ccccc3)CC2)nc(-n2nc(C)cc2C)n1 6.88%, O=C(NC1CCCc2ccccc21)C1CCCN(S(=O)(=O)c2cnc[nH]2)C1 (stereo not given) -21.5%, Cc1ccc(CCC(=O)Nc2ccc(Br)cc2)o1 -54.4%, c1ccc(NC2=NCCN2CC2CCC2)cc1 12.7%, O=S(=O)(c1cccc(F)c1)N1CCN(C(=S)NCC2CCCO2)CC1 (stereo not given) 13.9%, CCOc1ccc(N2C(=O)c3ccccc3C2=O)cc1 -124%, COc1ccc(C)cc1N(CC(=O)NCCSCc1cccc(Cl)c1)S(C)(=O)=O -2.85%, O=C(CSC(=S)N1CCSCC1)c1ccccc1 65.8%, O=C(COC(=O)c1cc([N+](=O)[O-])ccc1NCCO)c1ccccc1 22.5%, CCOCCCNC(=O)CNC(=S)N(Cc1ccccc1F)C1CCCCC1 32.8%, COc1ccc(C(=O)O)cc1NC(=S)NC(=O)/C=C/c1ccc(C(C)C)cc1 -16.3%, CC/C(C)=N/NC(=S)NCc1ccco1 5.26%, CCOc1ccc(NC(=O)CN(C)C(=O)c2sc3ccccc3c2Cl)cc1OCC 49.1%, CCC/C(O)=C1\C(=O)CC(C)(C)CC1=Nc1ccc(OC)cc1OC 34.6%, COc1ccc(OCC(=O)NCCc2ccc(S(N)(=O)=O)cc2)cc1 20.2%, CC1CCCCN1S(=O)(=O)c1ccc(C(=O)Nc2nnc(C3=COCCO3)o2)cc1 (stereo not given) -24.4%, COCCn1c(C)cc(C(=O)COC(=O)c2ccc(-n3nc(C)cc3C)cc2)c1C 13.4%, COc1cc2c(cc1OC)C(C)N(C(=O)c1c(C)noc1C)CC2 (stereo not given) -20.2%, Cc1ccccc1OCC(=O)N/N=C1\CC(=O)CC(C)(C)C1 17.4%, COc1ccc(NS(=O)(=O)c2cccc(C(=O)NNC(=O)c3ccc(Br)o3)c2)cc1, CC(=O)Nc1nnc(COc2ccccc2)s1 17.3%, CC(C)CCN(C(=O)CNC(=O)c1cccs1)C(C(=O)NC1CCCCC1)c1cccnc1 (stereo not given) 28.6%

Potency, inconclusive:
Cc1[nH]c2ccccc2c1N=Nc1ccc(F)cc1 29.1 µM [falling, partial curve, poor fit], Cc1cc(OCCCC(=O)NC2=NCCS2)ccc1Cl 29.1 µM [activator, single point], Cc1nnc(SCCn2c(N3CC(C)CC(C)C3)nc3c2c(=O)[nH]c(=O)n3C)s1 (stereo not given) 1.64 µM [activator, partial curve, poor fit], COCCNC(=O)c1ccc(S(=O)(=O)N2CCCc3ccccc32)cc1 29.1 µM [activator, single point], COCCn1c(=O)[nH]c2cc(C(=O)N3CCN(c4ccc(Cl)cc4)CC3)ccc2c1=O 0.651 µM [falling, partial curve, poor fit], Nc1cc(C(=O)O)ccc1N1CCCCCC1 0.731 µM [falling, single point], C=CCOc1ccccc1C1NC(=O)NC(C)=C1C(=O)NCc1ccccc1 (stereo not given) 11.6 µM [rising, partial curve], CC(C)CCNC(=O)C1CCN(c2nnc(-n3cccc3)s2)CC1 18.4 µM [activator, single point], O=C(CS(=O)(=O)Cc1ccccc1)N1CCN(Cc2ccc3c(c2)OCO3)CC1 2.06 µM [activator, full curve], COC(=O)c1c(C)oc(C)c1S(=O)(=O)NCc1ccc(Cl)cc1Cl 2.59 µM [activator, full curve, poor fit], CC(C)(O[C@@H]1O[C@H](CO)[C@@H](O)[C@H](O)[C@H]1O)[C@@H]1CC=C(C(=O)O)CC1 29.1 µM [activator, single point], Cc1cccnc1NC(=O)c1ccc([N+](=O)[O-])o1 16.4 µM [falling, single point], COc1cc(OC)cc(C(=O)NCC(=O)NC(C)CCc2ccccc2)c1 (stereo not given) 20.6 µM [activator, partial curve], COC(=O)C1C(=O)NCC1c1ccc(OC)cc1 (stereo not given) 29.1 µM [falling, single point], O=C(COC(=O)c1ccccc1)Nc1cccc(S(=O)(=O)N2CCOCC2)c1 0.58 µM [activator, full curve]

Potency, active:
Cc1ccc(COc2cccc(/C=N/NC(=O)c3nnn(-c4nonc4N)c3C)c2)cc1 20.6 µM
